Read-outs that look alike come from different tables or passages of the source. Results are given in words; binding and its absence hold for the method and conditions named. In cells and extracts the contact can be indirect. Here binding means that the protein was enriched with, or labelled near, the bait; the list need not be complete. For some assays here: No binding means not detected with the bait. For some assays here: Tags and fused reporters may be left off the sequences shown.
T1: BirA*-HA-Ccdc96 (Tetrahymena thermophila) (UniProt I7M6D6)
T1 sequence: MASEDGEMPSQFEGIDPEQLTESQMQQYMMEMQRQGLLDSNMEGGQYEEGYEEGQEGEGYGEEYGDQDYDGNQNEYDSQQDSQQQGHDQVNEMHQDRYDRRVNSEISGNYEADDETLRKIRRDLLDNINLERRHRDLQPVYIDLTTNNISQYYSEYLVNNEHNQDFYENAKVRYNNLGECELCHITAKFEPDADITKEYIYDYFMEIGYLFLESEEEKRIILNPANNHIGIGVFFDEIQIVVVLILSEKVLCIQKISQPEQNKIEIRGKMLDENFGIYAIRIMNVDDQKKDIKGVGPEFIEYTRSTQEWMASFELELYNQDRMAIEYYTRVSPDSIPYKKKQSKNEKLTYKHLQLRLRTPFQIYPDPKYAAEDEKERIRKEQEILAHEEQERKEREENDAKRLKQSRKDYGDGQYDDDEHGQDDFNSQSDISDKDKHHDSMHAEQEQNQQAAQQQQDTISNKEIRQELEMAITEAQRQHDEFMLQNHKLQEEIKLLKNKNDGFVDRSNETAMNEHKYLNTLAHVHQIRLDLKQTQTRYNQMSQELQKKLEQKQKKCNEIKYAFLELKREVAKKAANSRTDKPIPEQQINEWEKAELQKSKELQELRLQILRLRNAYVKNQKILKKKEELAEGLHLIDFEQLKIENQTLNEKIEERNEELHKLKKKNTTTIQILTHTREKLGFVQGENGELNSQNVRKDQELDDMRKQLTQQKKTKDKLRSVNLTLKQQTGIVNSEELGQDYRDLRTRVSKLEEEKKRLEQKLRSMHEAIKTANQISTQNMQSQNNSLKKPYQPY

T2: Ccdc113-3HA (Tetrahymena thermophila) (UniProt Q22KK0)
T2 sequence: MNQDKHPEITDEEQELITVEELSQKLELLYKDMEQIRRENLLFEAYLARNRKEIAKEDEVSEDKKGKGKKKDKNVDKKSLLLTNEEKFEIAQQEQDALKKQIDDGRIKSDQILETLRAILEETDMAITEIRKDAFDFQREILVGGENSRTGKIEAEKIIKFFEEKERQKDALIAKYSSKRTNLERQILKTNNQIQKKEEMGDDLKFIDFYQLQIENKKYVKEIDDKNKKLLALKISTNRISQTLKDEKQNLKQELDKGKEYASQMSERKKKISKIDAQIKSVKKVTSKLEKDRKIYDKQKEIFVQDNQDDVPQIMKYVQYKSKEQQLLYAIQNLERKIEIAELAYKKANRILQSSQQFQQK

T3: Ccdc96-HA-BirA* (Tetrahymena thermophila) (UniProt I7M6D6)
T3 sequence: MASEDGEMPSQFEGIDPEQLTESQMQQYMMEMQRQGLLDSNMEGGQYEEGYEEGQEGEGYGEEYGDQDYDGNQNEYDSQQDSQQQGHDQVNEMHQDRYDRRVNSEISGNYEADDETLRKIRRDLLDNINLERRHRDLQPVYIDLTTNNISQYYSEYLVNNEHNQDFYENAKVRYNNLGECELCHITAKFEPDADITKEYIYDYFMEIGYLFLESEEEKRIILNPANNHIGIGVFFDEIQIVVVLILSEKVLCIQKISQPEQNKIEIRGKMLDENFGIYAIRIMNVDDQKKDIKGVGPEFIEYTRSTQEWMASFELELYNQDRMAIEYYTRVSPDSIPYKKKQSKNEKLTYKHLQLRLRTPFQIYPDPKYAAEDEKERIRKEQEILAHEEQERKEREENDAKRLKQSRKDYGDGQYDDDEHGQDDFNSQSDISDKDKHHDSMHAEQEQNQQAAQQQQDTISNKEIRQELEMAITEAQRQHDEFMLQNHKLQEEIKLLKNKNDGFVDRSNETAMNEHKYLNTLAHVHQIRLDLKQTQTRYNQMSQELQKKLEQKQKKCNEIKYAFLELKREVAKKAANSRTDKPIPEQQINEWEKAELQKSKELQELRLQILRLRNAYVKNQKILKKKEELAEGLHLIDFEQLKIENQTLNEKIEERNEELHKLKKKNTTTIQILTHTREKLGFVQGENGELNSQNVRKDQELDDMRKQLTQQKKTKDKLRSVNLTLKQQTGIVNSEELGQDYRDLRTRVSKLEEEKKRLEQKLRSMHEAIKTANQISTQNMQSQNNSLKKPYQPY

T4: Ccdc113-HA-BirA* (Tetrahymena thermophila) (UniProt Q22KK0)
T4 sequence: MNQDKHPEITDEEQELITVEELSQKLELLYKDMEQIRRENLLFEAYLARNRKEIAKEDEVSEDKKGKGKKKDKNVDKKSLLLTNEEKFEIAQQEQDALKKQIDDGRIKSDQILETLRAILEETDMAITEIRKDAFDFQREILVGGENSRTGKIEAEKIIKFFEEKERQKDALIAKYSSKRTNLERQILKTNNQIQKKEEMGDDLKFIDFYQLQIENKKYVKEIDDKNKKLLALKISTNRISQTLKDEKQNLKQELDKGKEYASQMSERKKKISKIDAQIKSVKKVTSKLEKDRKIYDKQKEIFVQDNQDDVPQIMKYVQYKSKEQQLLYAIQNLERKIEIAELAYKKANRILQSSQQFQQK


Assays:
[1] = target: T1, BirA*-HA-Ccdc96 (Tetrahymena thermophila); experiment: proximity labelling; BioID: cells expressing the BirA*-tagged bait starved overnight in 10 mM Tris-HCl pH 7.5, then 50 uM biotin for 4 h at 30 C; axonemes lysed in 0.4% SDS, 500 mM NaCl; biotinylated proteins bound to streptavidin Dynabeads and identified by mass spectrometry; wild-type cells as control
[2] = target: T2, Ccdc113-3HA (Tetrahymena thermophila); experiment: affinity purification with mass spectrometry; 0.5 M KI extract of axonemes from cells with Ccdc113-3HA at the native level, diluted and concentrated, anti-HA agarose overnight at 4 C, washed with 10 mM Tris-HCl pH 7.4, 150 mM NaCl, 0.5 mM EDTA; wild-type cilia as control
[3] = target: T3, Ccdc96-HA-BirA* (Tetrahymena thermophila); experiment: proximity labelling; BioID: cells expressing the BirA*-tagged bait starved overnight in 10 mM Tris-HCl pH 7.5, then 50 uM biotin for 4 h at 30 C; axonemes lysed in 0.4% SDS, 500 mM NaCl; biotinylated proteins bound to streptavidin Dynabeads and identified by mass spectrometry; wild-type cells as control
[4] = target: T4, Ccdc113-HA-BirA* (Tetrahymena thermophila); experiment: as above
[5] = target: T2, Ccdc113-3HA (Tetrahymena thermophila); experiment: affinity purification with mass spectrometry; 0.5 M KI extract of axonemes from cells with Ccdc113-3HA at the native level, diluted and concentrated, anti-HA agarose overnight at 4 C, washed with 10 mM Tris-HCl pH 7.4, 150 mM NaCl, 0.5 mM EDTA; wild-type cilia as control; remark: listed apart in the source

Molecule	binding [1]	other results
Act1 (actin) (Tetrahymena thermophila)	no binding	binding [2]: binds
Cfap299 (Tetrahymena thermophila)		binding [3]: no binding; binding [4]: no binding
Drc1 (Tetrahymena thermophila)	no binding	
Drc3 (Tetrahymena thermophila)	no binding	
Drc4a (Tetrahymena thermophila)	no binding	
Fap57C (Tetrahymena thermophila)	no binding	

Further lines, with some results ahead:

binding [1]	Molecule	other results
no binding	Drc2 (Tetrahymena thermophila)	
no binding	Drc4b (Tetrahymena thermophila)	
no binding	Fap57B (Tetrahymena thermophila)	
no binding	Fap57A (protein, UniProt Q234G8 1-1293) MAQQIVQSLQDEGTQSLKLDFSMKYVLGYRSDFKNNIFQYTMNDQNRIIYPAGNTIVISNNENKQQFINCIPGTKGITCMTLSPSKRLLAWSEDCDSGIIVVFDLIKLDKLEKAKNQNYQEPSDKDKLDKQAEKDRRDRFEKEKREKIDKLQKEVKRIITTLDCKSRHYVALDFNKINEKRIVALSCAPDWQLIYFQLDKQKTVIINQVPLKVGDNMRYTHCFFHPKEEDFIVAIGTGAIKPYKLGADGQFKQKDPPFVKKESKDQAHSPNYLSYCILQDGYMVIGTDMGEILLFQPSCEFKTILASSPKNEQFAIQCIQPYSKGFLVGGKECTILFYEKDVDLKNPYKLCSKKIQFRDMKAMITSLLLTPNEEKLIVGVDSGQLLQVPFTSDSMQLNEENSKCEPLFMPFHSDKITGLDVCIRKSLVATCSVDKTVRIWNYSDNQLENSKEFEEEAYAVAFHPSGFHIIVAFTEKIRLMNIFENDLISFKELSVKNCREIQFSNGGHFFAITNVSMVQVFQFYTGENPSNLVFRGSGKVRTIFWEEDDQGFYTGSTDGLVIYWRVDDNGPQKTQIAQFNNLIITSITGLYNPDTTTQGLERILFVSGVSSSQENEGEKCVYKLVISCRQDKEGREITDNTLKKIYYVSQPEQKIFTGTNVSQIAISHSKKLFFFATEDRPGAIRITKYPFTNEIMEIQSHFGPITRMRISFKDNYIFTAGEDGALIIYENKEKEYQVKIENESVEAAAEEFLIPRDQYNDQKREIEKLKRQLNEERMKQEQQIKEKMKDRDDKINQLENQQKDSDNRDLNKYQLLEREKNEMIESYEEKKRMMKLQHENNKRTIENEYKKKIALEMSRNEELAREKEKEEKRFQSEIQQYQEEHLRQMEEKRRHYEEQLAIEKQLYNDLHLKREELAYKFDQKRNKLEMEAEELIDQLKEENESKMQVLFKNLEKAEIKKMDRRNDYDTEAQKLEEQKSKLKGTMEDITSIQETNKMLQKEKESHAKEIDEREKTIRDKGRRIYELKKKTQELEKFKFVLDYKIKELKRDIGPKEEEIAKMKEQIANMNSEILHFKRTNANLKLIVTDLRLRQEGMKKEIEDQSKVIQQNNQYIKAFEQDMSDCHQHIADYKKLKQKVLNLYNQYVQGDDSKKKRLENNDQQKEIMKERAHLETSVNNLKIKHDKNQSVHKSDTTIIMKHNTFLIFEINHLKREKKKILEDKAKMLMQATQKKKQDGTSRVDIDSLEKEIQKNEDEKRKLKEDIEKLRQYNDQIKNQLRQQIQNQQDDDEDN	
no binding	Fap251 (protein, UniProt Q24DE2 1-996) MYQQEEYEVNNEGQEDVSKINALNLKWTLGFNFQLTDGVHNLTNEKRKEIFYPVAHTGVIYDYENNTQRLLQGHCNRITATAYCKFSDIIVTADCGPDSMLVVWDASTGIPKKTIFEPHPNGCQALDISQDGQFIVTLSKEANTDTDVQSLSLWEWNKDDEPCLITNEFDRRIKDYQYFVRFNSDDNTEFATTGKTRIVFWRREGEQKGFNYYSPGNIPSLKVLTQTVFIPDNTQVVTGTTDGHIIVWDISLIIEKVDTPKERRAIKLVDLMNKSKKPDGKKGSNSINILKIQDNYLVIGSSNGSIRFYDFQYRIIAWFEDAIIGSISNISFANTPMIEDNEDEDGFDDERKDKGENEPKFICPDFIVVDLDATITMLNYKLFEELDDEKKKGTTLMKSIVSPIIAMSCRPNSNVIGICCENGYLYEWNFQEKSSVLSILRVFDTDKENIPNCIDYSPDGNWLSVATKSGKIHIFDCKEKQWQNSVLEVSENEQGKPKVNMQVFSSDSKNLATMDADYAVSLFTIDHRQFDVNIPEKEWQFVGKHRIHHSEIKSIAFGESKNENDKKYYRLFSIGADMKMVEYEVLEIDYSKQKEKGQQINYIDRLKLKSIYPIEQETIPTACIWYPINMYKEDVLLTVNEEFKIKLWQFMKDNFKFCKKTCLGPIYGGAINKLLILNQNDAQNDYQDKYLAYSTKEKVVGIIKLPLEGNPNQTMGLIAHPDKITSISCSNDGKHFFSSGSDDYCVNVWSVNVQALEQIFATNPNEDPYPKLLEGGEDGQTHQDLKNFFYYSQIRSKDEHTTKARKLDGKVPLIAIPDMMRSMGYYPTNKEIENMQNEIRFSKYLDPGEQVEELDLNMFLKLFVNHRPVQGIGKSKIAESLNTLTKSLSDSAKEIAEQAKGQSVQPKTYNIDGIGEISLQDLKKILTTEGERMTNEEFDECLKILCGENEDQIPQQINVNNLCEDILGFEDLEGEERDDNIEDQYEDEENEEYDQD	binding [5]: no binding
